Results published in paper PMC9985596.
Like-named read-outs stand apart in the source and are kept apart here. No constants are given. Whether binding was seen depends on the method and setting. In cells and extracts the contact can be indirect. Some binding calls cover weakened binding; strength is not graded here. For part of these data: Where a sequence is shown, tags or fusion partners need not be part of it. Blank lines part the entries; values can stand above or below the molecule they belong to.

The chains behind the UniProt entries cited, without tags or fusion partners. Residues count along the entry.
UniProt Q9NYG5: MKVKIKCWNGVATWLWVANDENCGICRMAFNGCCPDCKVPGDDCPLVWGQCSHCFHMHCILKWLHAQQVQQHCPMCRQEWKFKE
UniProt P53396: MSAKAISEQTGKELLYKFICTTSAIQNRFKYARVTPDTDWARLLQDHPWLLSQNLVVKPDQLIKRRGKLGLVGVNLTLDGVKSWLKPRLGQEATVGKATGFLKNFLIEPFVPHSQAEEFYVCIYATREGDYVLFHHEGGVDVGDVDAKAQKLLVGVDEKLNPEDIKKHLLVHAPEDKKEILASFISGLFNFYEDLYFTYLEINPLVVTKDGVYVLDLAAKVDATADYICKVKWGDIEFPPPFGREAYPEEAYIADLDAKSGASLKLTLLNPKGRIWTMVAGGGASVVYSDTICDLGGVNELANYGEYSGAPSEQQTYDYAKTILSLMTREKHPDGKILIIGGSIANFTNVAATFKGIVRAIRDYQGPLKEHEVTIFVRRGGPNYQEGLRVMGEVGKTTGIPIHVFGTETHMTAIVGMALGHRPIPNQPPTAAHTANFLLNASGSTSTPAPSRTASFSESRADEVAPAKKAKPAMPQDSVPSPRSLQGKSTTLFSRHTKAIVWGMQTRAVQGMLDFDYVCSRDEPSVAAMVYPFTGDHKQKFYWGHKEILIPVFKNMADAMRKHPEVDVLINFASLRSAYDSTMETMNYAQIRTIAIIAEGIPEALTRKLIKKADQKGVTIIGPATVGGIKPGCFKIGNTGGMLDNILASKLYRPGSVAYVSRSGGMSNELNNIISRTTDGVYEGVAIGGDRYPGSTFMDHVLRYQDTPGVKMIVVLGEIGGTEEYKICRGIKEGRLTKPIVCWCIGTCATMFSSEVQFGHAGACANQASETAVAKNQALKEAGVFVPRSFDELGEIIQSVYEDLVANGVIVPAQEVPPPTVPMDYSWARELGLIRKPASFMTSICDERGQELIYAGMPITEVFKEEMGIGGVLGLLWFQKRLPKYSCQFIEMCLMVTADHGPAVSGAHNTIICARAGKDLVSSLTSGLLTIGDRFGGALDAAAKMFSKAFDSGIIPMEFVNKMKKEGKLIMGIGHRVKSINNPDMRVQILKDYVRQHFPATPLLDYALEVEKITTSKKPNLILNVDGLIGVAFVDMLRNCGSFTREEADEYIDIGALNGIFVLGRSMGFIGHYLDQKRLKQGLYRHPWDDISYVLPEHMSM
UniProt Q9BRT9: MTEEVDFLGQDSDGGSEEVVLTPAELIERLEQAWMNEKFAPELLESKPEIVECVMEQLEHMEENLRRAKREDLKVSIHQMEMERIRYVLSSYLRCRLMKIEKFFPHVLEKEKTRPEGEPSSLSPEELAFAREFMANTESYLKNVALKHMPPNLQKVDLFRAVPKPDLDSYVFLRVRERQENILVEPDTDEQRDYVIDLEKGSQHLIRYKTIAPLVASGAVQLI
UniProt O43684: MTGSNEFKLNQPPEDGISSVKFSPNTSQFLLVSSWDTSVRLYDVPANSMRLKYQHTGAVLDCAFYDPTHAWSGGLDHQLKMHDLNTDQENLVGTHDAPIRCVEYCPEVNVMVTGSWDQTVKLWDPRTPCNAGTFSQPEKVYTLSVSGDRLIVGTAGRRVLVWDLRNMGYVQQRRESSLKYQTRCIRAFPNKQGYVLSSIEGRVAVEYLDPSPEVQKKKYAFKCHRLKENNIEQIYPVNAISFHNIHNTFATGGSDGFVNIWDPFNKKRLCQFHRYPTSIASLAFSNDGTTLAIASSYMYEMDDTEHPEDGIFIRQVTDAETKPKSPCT
UniProt Q07021, residues 74-282: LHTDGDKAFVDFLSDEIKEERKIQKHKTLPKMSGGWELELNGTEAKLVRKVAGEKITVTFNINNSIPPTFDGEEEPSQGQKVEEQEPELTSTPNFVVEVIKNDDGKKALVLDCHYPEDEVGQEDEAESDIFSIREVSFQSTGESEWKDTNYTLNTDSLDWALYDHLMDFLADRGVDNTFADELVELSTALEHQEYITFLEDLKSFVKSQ
UniProt P22314: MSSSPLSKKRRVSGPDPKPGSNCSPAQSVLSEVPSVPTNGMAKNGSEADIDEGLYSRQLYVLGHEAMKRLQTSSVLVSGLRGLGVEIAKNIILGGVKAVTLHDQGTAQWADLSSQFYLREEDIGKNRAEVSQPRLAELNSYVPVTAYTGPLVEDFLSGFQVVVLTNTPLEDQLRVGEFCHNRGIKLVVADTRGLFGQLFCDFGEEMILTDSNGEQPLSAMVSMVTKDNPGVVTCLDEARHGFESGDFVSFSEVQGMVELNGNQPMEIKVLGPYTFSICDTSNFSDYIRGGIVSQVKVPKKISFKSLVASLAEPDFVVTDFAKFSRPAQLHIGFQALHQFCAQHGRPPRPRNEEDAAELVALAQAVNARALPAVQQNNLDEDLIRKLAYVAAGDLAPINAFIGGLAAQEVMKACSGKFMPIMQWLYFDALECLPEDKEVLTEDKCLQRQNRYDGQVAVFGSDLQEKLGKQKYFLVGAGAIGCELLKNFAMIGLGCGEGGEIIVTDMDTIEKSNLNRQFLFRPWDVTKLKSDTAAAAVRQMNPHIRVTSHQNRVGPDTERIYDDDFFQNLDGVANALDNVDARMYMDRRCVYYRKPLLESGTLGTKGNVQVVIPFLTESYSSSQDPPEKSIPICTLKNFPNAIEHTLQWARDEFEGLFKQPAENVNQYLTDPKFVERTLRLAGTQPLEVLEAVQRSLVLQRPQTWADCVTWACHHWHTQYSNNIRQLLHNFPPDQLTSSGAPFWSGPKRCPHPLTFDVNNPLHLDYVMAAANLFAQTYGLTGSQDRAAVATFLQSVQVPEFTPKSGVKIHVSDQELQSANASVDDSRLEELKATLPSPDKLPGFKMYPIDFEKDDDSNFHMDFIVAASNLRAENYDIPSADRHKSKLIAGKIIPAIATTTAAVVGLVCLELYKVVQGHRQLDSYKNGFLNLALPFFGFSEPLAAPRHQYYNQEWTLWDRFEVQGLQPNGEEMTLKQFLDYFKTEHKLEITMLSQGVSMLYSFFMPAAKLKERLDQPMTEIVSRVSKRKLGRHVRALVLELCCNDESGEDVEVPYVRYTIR

Legend:
[1] = target: T1, endogenous RECQ4 (human (endogenous in HEK293)) (UniProt O94761); test: co-IP; endogenous RECQ4 immunopurified with rabbit anti-RECQ4 antibody on protein A agarose from whole-cell extracts of parental HEK293 cells at time points after release from nocodazole; western blot (Fig. 3b)
T1 sequence: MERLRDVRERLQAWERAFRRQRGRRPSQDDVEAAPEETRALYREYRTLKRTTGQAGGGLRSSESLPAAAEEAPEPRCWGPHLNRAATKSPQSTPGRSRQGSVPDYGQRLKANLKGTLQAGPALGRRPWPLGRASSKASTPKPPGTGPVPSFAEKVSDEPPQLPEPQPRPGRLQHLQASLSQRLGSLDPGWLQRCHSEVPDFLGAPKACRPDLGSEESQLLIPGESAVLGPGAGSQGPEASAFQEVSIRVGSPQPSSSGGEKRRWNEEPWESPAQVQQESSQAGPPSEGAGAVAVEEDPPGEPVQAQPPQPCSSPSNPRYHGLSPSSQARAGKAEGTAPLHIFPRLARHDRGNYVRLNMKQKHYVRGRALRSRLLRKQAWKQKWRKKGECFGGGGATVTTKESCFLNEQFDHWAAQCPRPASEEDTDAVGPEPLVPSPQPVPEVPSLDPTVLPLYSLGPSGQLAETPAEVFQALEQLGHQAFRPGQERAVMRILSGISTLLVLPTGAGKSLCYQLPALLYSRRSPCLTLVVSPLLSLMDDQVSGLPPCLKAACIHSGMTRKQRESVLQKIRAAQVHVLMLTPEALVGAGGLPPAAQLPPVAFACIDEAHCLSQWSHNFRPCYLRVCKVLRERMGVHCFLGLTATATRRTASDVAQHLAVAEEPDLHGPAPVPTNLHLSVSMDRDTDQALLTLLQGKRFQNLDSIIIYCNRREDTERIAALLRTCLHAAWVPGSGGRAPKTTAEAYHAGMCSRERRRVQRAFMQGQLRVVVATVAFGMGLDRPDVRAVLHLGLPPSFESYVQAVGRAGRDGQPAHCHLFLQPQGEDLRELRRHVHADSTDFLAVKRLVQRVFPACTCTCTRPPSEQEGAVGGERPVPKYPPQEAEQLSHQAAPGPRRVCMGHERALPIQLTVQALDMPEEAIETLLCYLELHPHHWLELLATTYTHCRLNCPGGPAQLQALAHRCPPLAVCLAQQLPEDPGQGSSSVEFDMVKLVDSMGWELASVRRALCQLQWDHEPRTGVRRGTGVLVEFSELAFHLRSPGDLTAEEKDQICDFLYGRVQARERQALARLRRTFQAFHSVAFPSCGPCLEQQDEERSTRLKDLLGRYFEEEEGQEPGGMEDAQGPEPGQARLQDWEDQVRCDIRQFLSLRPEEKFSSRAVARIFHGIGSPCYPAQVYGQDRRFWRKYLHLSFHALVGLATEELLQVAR

[2] = target: T2, FLAG-tagged RECQ4 wild type (human) (UniProt O94761); test: co-IP; FLAG-RECQ4 proteins on anti-FLAG M2 agarose from cytoplasmic (CE) fractions of stable RECQ4 KD HEK293 cells; western blot (Fig. 2d left)
T2 sequence: T1 sequence

[3] = target: T2, FLAG-tagged RECQ4 wild type (human); test: co-IP; FLAG-RECQ4 proteins on anti-FLAG M2 agarose from chromatin-bound (CB) fractions of stable RECQ4 KD HEK293 cells; western blot (Fig. 2d right, Fig. 7g)
[4] = target: T3, FLAG-tagged RECQ4 Q757X mutant (human) (UniProt O94761); test: as above
T3 sequence: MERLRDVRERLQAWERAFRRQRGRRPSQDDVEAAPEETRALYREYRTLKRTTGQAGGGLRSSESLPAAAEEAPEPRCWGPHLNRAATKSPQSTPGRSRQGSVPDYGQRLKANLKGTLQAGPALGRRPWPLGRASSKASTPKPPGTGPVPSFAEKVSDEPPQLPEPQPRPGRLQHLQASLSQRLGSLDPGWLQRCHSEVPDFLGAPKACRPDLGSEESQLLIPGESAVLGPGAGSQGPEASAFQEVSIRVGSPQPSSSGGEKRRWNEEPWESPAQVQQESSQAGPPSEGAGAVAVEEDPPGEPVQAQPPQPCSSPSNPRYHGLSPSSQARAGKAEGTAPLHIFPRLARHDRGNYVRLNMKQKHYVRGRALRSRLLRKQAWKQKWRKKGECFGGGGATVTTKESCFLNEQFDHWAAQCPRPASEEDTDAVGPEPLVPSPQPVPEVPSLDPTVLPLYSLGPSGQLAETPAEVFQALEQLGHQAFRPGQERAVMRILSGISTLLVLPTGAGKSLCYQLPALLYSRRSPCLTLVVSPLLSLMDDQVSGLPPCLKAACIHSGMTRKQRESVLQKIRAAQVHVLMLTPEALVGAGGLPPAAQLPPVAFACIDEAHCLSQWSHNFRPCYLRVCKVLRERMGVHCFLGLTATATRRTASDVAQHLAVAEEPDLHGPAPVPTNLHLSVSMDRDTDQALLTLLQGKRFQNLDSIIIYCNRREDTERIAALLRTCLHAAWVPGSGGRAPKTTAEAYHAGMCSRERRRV

[5] = target: T4, FLAG-tagged RECQ4 D1093X mutant (human) (UniProt O94761); test: as above
T4 sequence: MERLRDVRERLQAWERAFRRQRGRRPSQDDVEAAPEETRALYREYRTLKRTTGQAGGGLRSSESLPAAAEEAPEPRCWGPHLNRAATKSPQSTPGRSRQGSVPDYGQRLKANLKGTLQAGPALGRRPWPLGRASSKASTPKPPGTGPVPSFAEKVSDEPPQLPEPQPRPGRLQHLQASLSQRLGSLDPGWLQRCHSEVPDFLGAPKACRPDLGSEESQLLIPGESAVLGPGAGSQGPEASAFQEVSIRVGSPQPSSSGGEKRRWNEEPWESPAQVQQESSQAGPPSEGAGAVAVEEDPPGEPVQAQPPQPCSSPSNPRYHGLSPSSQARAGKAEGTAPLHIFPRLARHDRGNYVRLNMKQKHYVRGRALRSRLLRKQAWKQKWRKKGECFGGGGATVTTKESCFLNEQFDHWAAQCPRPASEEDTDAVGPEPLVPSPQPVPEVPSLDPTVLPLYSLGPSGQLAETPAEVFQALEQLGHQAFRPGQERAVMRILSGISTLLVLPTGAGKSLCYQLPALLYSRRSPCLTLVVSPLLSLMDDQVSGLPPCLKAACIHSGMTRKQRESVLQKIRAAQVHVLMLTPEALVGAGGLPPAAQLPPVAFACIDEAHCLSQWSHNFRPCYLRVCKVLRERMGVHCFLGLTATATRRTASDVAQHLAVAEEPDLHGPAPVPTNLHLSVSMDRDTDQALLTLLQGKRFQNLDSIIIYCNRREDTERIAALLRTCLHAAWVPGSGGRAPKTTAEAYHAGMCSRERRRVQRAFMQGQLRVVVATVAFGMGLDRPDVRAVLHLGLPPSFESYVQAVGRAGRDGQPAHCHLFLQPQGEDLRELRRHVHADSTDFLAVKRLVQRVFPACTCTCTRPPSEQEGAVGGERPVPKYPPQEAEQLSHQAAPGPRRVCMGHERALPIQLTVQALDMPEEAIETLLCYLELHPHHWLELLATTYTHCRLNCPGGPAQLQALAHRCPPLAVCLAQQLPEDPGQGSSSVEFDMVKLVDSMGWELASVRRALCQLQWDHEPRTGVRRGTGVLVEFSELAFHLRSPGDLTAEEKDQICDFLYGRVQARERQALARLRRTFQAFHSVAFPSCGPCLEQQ

[6] = target: T5, FLAG-RECQ4(751-1208) (human) (UniProt O94761); test: co-IP; FLAG-RECQ4 proteins on M2 agarose from stable RECQ4 KD HEK293 cells, extract or fraction not named; cells with or without APC5 shRNA (Fig. 3g); WT, Q757X and 751-1208 (Fig. 7e); western blot
T5 sequence: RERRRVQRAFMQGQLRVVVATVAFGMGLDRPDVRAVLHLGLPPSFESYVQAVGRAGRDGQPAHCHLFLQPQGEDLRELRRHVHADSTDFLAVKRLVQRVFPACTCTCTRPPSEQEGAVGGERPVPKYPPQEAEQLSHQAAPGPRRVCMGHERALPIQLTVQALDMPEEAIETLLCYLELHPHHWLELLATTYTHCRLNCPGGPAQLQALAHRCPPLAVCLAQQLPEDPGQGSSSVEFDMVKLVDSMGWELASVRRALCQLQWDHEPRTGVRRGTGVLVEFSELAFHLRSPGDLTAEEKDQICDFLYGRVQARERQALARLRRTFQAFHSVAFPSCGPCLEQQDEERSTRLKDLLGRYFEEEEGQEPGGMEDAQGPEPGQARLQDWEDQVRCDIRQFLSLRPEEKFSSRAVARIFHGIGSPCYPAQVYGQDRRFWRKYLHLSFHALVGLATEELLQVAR

[7] = target: T2, FLAG-tagged RECQ4 wild type (human); test: co-IP; FLAG-RECQ4 WT or Q757X on M2 agarose from whole-cell extracts of stable RECQ4 KD HEK293 cells at time points after release from nocodazole; western blot (Fig. 3e)
[8] = target: T2, FLAG-tagged RECQ4 wild type (human); test: co-IP; FLAG-RECQ4 proteins on M2 agarose from stable RECQ4 KD HEK293 cells, extract or fraction not named; cells with or without APC5 shRNA (Fig. 3g); WT, Q757X and 751-1208 (Fig. 7e); western blot
[9] = target: T3, FLAG-tagged RECQ4 Q757X mutant (human); test: as above
[10] = target: T5, FLAG-RECQ4(751-1208) (human); test: as above; remark: listed apart in the source

binding [1]: binds
Molecule: APC11 (from UniProt Q9NYG5 1-84)

binding [2]: binds
Molecule: ATP citrate lyase (ACLY) (from UniProt P53396 1-1101) (enzyme)

binding [3]: binds
binding [4]: binds
binding [5]: binds
Molecule: GINS4 (from UniProt Q9BRT9 1-223)

binding [6]: binds
binding [7]: binds
binding [3]: binds
binding [5]: binds
binding [1]: binds
Molecule: mitotic checkpoint protein BUB3 (from UniProt O43684 1-328)

binding [8]: binds
binding [9]: binds
Molecule: p32 (from UniProt Q07021 74-282)

binding [2]: binds
Molecule: ubiquitin-activating enzyme E1 homolog A (UBA1) (from UniProt P22314 1-1058)

binding [3]: binds
binding [4]: binds
binding [5]: binds
binding [1]: binds
B1: GINS2 (protein, UniProt Q9Y248 1-185)
chain: MDAAEVEFLAEKELVTIIPNFSLDKIYLIGGDLGPFNPGLPVEVPLWLAINLKQRQKCRLLPPEWMDVEKLEKMRDHERKEETFTPMPSPYYMELTKLLLNHASDNIPKADEIRTLVKDMWDTRIAKLRVSADSFVRQQEAHAKLDNLTLMEINTSGTFLTQALNHMYKLRTNLQPLESTQSQDF

binding [10]: binds
binding [7]: binds
binding [3]: binds
binding [5]: binds
B2: EMI1 (protein, UniProt Q9UKT4 1-447)
chain: MSRRPCSCALRPPRCSCSASPSAVTAAGRPRPSDSCKEESSTLSVKMKCDFNCNHVHSGLKLVKPDDIGRLVSYTPAYLEGSCKDCIKDYERLSCIGSPIVSPRIVQLETESKRLHNKENQHVQQTLNSTNEIEALETSRLYEDSGYSSFSLQSGLSEHEEGSLLEENFGDSLQSCLLQIQSPDQYPNKNLLPVLHFEKVVCSTLKKNAKRNPKVDREMLKEIIARGNFRLQNIIGRKMGLECVDILSELFRRGLRHVLATILAQLSDMDLINVSKVSTTWKKILEDDKGAFQLYSKAIQRVTENNNKFSPHASTREYVMFRTPLASVQKSAAQTSLKKDAQTKLSNQGDQKGSTYSRHNEFSEVAKTLKKNESLKACIRCNSPAKYDCYLQRATCKREGCGFDYCTKCLCNYHTTKDCSDGKLLKASCKIGPLPGTKKSKKNLRRL
